Consider 8 molecules from PMC8584173, “The Cytotoxic Effect of Copper (II) Complexes with Halogenated 1,3-Disubstituted Arylthioureas on Cancer and Bacterial Cells” (International Journal of Molecular Sciences, 2021).

Each structure is given as a SMILES string.

Holding throughout (type): cell-based
The test system of data set [1] is SW480 (human primary colon cancer). Briefly: MTT cytotoxicity assay, SW480. Particulars: IC50 for normal cell line (HaCaT)/IC50 SW480. As to the method:
(§1) The human primary (SW480), metastatic (SW620) colon cancer, metastatic prostate cancer (PC3) and human immortal keratinocyte (HaCaT) cell lines were purchased from the American Type Culture Collection (ATCC, Rockville, USA). The cells were cultured in medium according to protocols (MEM for SW480 and SW620, RPMI 1640 for PC3 and DMEM for HaCaT cells) supplemented with 10% fetal bovine serum (FBS), penicillin (100 U/mL) and streptomycin (100 μg/mL) and cultured in 37 °C/ 5% CO2 humidified incubator. The cells were cultured until appropriate confluence was achieved (80–90%). Next, they were harvested by treatment with 0.25% trypsin (Gibco Life Technologies, USA) and used for studies.
(§2) Cells without studied compounds in medium were used as a control.
(§3) The cell viability was assessed by determination of MTT salt (3-(4,5-dimethylthiazol-2-yl)-2,5-diphenyltetrazolium bromide) conversion by mitochondrial dehydrogenase. MTT assay was performed as previously described. Experiments were repeated three times. Cell viability was presented as a percentage of MTT reduction in the treated cells versus the control cells. Number of viable cells cultured without studied compounds was assumed to be 100%. Decreased relative MTT level means decreased cell viability. Thiourea complexes with the highest cytotoxic potential assessed by MTT determination (with the lowest IC50) were chosen for subsequent assessments of cytotoxicity mechanisms.

The test system of data set [2] is SW620 (human metastatic colon cancer). The data set is described as follows: MTT cytotoxicity assay, SW620. Conditions: IC50 for normal cell line (HaCaT)/IC50 SW620. How it is done:
as §1, §2
The cell viability was assessed by determination of MTT salt (3-(4,5-dimethylthiazol-2-yl)-2,5-diphenyltetrazolium bromide) conversion by mitochondrial dehydrogenase. MTT assay was performed as previously described. Experiments were repeated three times. Cell viability was presented as a percentage of MTT reduction in the treated cells versus the control cells. Number of viable cells cultured without studied compounds was assumed to be 100%. Decreased relative MTT level means decreased cell viability.
For orientation: Formazan colour is commonly taken as a measure of viable cells.

Data set [3] concerns PC3 (human metastatic prostate cancer). The data set is described as follows: MTT cytotoxicity assay, PC3. Conditions: IC50 for normal cell line (HaCaT)/IC50 PC3. How it is done:
as §1, §2, §3

`O=[N+]([O-])c1cc([N+]2=C(Nc3ccccc3Br)[S][Cu-2]23[S]C(Nc2ccccc2Br)=[N+]3c2ccc(Cl)c([N+](=O)[O-])c2)ccc1Cl` [Compound 1, Copper (II) complex with 1-(2-bromophenyl)-3-(4-chloro-3-nitrophenyl)thiourea]: the “SI (selectivity index)” value in data set [1] is 23.2; in data set [2] it was 33.2; in data set [3] it was 11.5.

`O=[N+]([O-])c1cc([N+]2=C(Nc3cccc(Br)c3)[S][Cu-2]23[S]C(Nc2cccc(Br)c2)=[N+]3c2ccc(Cl)c([N+](=O)[O-])c2)ccc1Cl` [Compound 2, Copper (II) complex with 1-(3-bromophenyl)-3-(4-chloro-3-nitrophenyl)thiourea]: the results for the “SI (selectivity index)” value in data set [1], in data set [2] and in data set [3] were 6.8, 7.5 and 8.7, respectively.

With `O=[N+]([O-])c1cc([N+]2=C(Nc3ccc(Br)cc3)[S][Cu-2]23[S]C(Nc2ccc(Br)cc2)=[N+]3c2ccc(Cl)c([N+](=O)[O-])c2)ccc1Cl` [Compound 3, Copper (II) complex with 1-(4-bromophenyl)-3-(4-chloro-3-nitrophenyl)thiourea], the “SI (selectivity index)” value worked out at 8.6 in data set [1], 5.3 in data set [2] and 11.7 in data set [3].

In the case of `O=[N+]([O-])c1cc([N+]2=C(Nc3ccc(F)c(Cl)c3)[S][Cu-2]23[S]C(Nc2ccc(F)c(Cl)c2)=[N+]3c2ccc(Cl)c([N+](=O)[O-])c2)ccc1Cl` [Compound 4, Copper (II) complex with 1-(3-chloro-4-fluorophenyl)-3-(4-chloro-3-nitrophenyl)thiourea], the figures for the “SI (selectivity index)” value in data set [1], in data set [2] and in data set [3] were 6.3, 5.7 and 5.2, respectively.

Turning to `O=[N+]([O-])c1cc([N+]2=C(Nc3ccc(Cl)c(Cl)c3)[S][Cu-2]23[S]C(Nc2ccc(Cl)c(Cl)c2)=[N+]3c2ccc(Cl)c([N+](=O)[O-])c2)ccc1Cl` [Compound 5, Copper (II) complex with 1-(4-chloro-3-nitrophenyl)-3-(3,4-dichlorophenyl)thiourea], the “SI (selectivity index)” value in data set [1] stood at 8.1; in data set [2] it was 15.2; in data set [3] it was 14.4.

`O=[N+]([O-])c1cc(NC2=[N+](c3ccc(Cl)c([N+](=O)[O-])c3)[Cu-2]3([S]2)[S]C(Nc2ccc(Cl)c([N+](=O)[O-])c2)=[N+]3c2ccc(Cl)c([N+](=O)[O-])c2)ccc1Cl` [Compound 6, Copper (II) complex with 1,3-bis(4-chloro-3-nitrophenyl)thiourea]: the “SI (selectivity index)” value was determined as 4.6 in data set [1], 5.7 in data set [2] and 6.1 in data set [3].

With `O=[N+]([O-])c1cc([N+]2=C(Nc3ccccc3F)[S][Cu-2]23[S]C(Nc2ccccc2F)=[N+]3c2ccc(Cl)c([N+](=O)[O-])c2)ccc1Cl` [Compound 7, Copper (II) complex with 1-(2-fluorophenyl)-3-(4-chloro-3-nitrophenyl)thiourea], the “SI (selectivity index)” value in data set [1] turned out to be 8.9; in data set [2], 12.8.

For the molecule `O=[N+]([O-])c1cc([N+]2=C(Nc3ccc(I)cc3)[S][Cu-2]23[S]C(Nc2ccc(I)cc2)=[N+]3c2ccc(Cl)c([N+](=O)[O-])c2)ccc1Cl` [Compound 8, Copper (II) complex with 1-(4-iodophenyl)-3-(4-chloro-3-nitrophenyl)thiourea], the “SI (selectivity index)” value was 26.3 in data set [1], 5.7 in data set [2] and 23.8 in data set [3].
